Reference: article PMC3670911
These are yes or no findings as the source states them, for the method shown. For some assays here: In cells and extracts the contact can be indirect. Some entries that bind do so weakly or less than the wild type. For some assays here: Where a sequence is shown, tags or fusion partners need not be part of it. Each block holds one binder with its values, some of them ahead of it.

By UniProt entry, the sequences of proteins in these tests, tags left out. Residues count along the entry.
UniProt P02751, residues 32-2477: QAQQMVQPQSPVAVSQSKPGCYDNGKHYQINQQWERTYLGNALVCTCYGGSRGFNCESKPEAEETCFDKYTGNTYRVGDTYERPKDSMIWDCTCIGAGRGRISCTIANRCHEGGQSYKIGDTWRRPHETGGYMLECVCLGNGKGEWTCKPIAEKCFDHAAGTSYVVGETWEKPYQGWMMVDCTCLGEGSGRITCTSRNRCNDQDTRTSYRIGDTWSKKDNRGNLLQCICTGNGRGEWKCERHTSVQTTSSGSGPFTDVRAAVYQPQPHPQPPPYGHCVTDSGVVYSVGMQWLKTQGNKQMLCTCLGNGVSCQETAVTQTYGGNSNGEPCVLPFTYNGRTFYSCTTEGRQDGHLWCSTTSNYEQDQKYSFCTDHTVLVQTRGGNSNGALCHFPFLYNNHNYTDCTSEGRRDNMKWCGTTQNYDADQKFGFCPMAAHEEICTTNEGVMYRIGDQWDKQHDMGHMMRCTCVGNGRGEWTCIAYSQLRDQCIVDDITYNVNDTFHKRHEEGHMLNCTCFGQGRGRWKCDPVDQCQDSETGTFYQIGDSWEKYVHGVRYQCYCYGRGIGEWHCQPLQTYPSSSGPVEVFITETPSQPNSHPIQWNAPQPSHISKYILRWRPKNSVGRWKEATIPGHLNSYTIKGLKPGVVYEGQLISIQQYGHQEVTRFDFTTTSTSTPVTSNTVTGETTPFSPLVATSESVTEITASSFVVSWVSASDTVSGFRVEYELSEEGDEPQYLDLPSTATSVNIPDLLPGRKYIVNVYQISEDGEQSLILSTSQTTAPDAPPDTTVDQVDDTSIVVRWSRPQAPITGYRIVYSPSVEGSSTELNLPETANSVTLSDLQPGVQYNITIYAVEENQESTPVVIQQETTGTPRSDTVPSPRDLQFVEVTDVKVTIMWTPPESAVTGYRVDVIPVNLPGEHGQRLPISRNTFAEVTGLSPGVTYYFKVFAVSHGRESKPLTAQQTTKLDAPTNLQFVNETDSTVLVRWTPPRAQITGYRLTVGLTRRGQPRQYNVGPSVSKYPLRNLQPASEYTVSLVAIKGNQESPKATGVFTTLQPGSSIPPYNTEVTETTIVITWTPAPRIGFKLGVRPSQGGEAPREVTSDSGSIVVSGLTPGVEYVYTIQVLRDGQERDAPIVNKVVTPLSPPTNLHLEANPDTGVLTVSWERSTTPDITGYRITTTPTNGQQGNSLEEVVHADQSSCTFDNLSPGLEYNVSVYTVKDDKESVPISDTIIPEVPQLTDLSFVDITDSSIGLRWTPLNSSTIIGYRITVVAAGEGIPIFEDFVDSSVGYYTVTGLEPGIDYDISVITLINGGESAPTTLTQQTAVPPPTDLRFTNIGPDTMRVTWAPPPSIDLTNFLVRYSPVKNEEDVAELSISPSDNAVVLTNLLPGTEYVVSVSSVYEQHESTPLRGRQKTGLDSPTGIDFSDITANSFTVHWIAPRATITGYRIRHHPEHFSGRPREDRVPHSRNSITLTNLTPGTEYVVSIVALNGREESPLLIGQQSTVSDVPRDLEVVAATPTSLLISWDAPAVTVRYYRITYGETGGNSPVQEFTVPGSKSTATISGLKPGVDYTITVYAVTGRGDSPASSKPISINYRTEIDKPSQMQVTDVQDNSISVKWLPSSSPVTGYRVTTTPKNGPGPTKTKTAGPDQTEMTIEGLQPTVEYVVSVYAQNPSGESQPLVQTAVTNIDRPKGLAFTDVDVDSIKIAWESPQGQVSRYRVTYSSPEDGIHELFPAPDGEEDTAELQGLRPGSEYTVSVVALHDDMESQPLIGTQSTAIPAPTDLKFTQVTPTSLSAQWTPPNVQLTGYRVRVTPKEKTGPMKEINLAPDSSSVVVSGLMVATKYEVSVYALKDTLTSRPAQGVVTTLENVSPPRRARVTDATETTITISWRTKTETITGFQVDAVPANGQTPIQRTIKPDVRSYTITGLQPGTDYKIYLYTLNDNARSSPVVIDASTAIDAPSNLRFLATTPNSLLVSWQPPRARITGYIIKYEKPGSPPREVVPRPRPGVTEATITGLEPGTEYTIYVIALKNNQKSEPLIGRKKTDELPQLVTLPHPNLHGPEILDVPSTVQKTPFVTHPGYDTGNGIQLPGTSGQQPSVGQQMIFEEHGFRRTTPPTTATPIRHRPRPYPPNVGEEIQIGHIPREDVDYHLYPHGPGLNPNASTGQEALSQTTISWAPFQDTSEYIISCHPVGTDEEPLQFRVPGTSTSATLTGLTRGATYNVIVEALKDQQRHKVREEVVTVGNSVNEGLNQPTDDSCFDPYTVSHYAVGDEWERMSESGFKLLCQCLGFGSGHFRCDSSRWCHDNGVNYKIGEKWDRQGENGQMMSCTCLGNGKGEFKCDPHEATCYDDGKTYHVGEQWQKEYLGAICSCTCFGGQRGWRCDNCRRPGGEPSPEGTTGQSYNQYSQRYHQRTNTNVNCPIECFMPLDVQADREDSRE

What was measured:
[1] = target: T1, FK506 binding protein 3 (FKBP3), endogenous (human (endogenous in HEK293 and human lung fibroblasts)) (UniProt Q00688); experiment: co-IP; FKBP3/LARP6 pull downs repeated in scleroderma skin fibroblasts; data not shown
T1 sequence: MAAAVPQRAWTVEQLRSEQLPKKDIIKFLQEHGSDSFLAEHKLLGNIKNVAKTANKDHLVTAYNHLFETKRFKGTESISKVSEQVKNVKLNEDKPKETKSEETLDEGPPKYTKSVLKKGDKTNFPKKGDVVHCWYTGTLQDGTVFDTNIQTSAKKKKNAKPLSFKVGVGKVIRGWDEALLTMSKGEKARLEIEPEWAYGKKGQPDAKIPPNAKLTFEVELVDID

[2] = target: T1, FK506 binding protein 3 (FKBP3), endogenous (human (endogenous in HEK293 and human lung fibroblasts)); experiment: co-IP; endogenous proteins in HLFs, untreated or treated with 2 µM FK506; IP with anti-FKBP3 antibody (control: anti-fibronectin antibody or no antibody), Western blot with anti-LARP6 antibody
[3] = target: fibronectin, endogenous (human (endogenous in human lung fibroblasts)) (UniProt P02751); experiment: as above
[4] = target: T2, HA-tagged full size LARP6 (La ribonucleoprotein domain family member 6) (UniProt Q9BRS8); experiment: co-IP; HA-tagged LARP6 constructs expressed in HEK293 cells; IP with anti-HA antibody, Western blot with anti-FKBP3 antibody; lysis in isotonic buffer, protein A/G beads, washes with PBS with 0.5% NP-40
T2 sequence: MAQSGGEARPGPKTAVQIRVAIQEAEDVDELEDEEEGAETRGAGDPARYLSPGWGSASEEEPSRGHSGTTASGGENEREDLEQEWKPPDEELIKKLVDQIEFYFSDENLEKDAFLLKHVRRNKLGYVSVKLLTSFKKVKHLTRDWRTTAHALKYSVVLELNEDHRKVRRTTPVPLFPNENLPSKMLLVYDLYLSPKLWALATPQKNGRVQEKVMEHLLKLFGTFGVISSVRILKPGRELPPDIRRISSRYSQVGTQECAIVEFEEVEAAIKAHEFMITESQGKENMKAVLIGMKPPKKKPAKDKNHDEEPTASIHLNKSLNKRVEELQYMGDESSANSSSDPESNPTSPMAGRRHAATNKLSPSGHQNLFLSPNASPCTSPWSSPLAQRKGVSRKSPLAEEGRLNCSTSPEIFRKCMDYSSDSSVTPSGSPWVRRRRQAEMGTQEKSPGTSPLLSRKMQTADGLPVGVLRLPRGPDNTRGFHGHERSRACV

[5] = target: T3, LARP6, yeast two-hybrid fusion (UniProt Q9BRS8); experiment: two-hybrid; yeast two-hybrid screening with LARP6; details in preparation
T3 sequence: T2 sequence

binding [1]: binds
binding [2]: binds
binding [3]: no binding
B1: La ribonucleoprotein domain family member 6 (LARP6), endogenous (protein, UniProt Q9BRS8 1-491)
chain: T2 sequence

binding [4]: binds
B2: FK506 binding protein 3 (FKBP3), endogenous (protein, UniProt Q00688 1-224)
chain: T1 sequence

binding [5]: binds
B3: FKBP3, yeast two-hybrid clone (protein, UniProt Q00688 1-224)
chain: T1 sequence
